According to article PMC9020716:
Results are given in words; binding and its absence hold for the method and conditions named. Binding seen in cells or lysates may run through a third protein. A yes stands for co-enrichment or nearness to the bait. Other partners may have been found. For part of these data: A no says only that the protein was not detected with the bait. Where a sequence is shown, tags or fusion partners need not be part of it.

The chains behind the UniProt entries cited, without tags or fusion partners.
UniProt G5EGK8: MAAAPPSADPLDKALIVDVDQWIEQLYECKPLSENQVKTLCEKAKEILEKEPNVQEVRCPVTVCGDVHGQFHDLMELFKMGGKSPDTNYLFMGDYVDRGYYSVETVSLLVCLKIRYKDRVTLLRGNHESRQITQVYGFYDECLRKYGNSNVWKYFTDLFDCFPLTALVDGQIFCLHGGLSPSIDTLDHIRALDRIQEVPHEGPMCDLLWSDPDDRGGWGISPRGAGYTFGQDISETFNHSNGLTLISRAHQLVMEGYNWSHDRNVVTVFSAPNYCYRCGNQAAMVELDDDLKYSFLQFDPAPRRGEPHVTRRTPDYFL
UniProt P34475: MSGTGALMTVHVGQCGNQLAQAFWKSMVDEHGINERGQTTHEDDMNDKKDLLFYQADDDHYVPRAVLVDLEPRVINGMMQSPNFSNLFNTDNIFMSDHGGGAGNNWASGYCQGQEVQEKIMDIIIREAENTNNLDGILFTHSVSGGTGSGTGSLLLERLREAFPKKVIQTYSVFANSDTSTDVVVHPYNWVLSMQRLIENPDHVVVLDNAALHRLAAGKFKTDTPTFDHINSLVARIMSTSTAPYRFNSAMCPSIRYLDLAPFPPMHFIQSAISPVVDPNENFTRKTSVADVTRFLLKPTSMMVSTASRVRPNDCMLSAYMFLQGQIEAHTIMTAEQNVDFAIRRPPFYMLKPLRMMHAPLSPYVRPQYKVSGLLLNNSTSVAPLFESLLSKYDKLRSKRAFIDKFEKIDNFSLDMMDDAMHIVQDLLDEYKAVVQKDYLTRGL

T1: GFP:TurboID:PLK-1 (C. elegans) (UniProt P34331)
T1 sequence: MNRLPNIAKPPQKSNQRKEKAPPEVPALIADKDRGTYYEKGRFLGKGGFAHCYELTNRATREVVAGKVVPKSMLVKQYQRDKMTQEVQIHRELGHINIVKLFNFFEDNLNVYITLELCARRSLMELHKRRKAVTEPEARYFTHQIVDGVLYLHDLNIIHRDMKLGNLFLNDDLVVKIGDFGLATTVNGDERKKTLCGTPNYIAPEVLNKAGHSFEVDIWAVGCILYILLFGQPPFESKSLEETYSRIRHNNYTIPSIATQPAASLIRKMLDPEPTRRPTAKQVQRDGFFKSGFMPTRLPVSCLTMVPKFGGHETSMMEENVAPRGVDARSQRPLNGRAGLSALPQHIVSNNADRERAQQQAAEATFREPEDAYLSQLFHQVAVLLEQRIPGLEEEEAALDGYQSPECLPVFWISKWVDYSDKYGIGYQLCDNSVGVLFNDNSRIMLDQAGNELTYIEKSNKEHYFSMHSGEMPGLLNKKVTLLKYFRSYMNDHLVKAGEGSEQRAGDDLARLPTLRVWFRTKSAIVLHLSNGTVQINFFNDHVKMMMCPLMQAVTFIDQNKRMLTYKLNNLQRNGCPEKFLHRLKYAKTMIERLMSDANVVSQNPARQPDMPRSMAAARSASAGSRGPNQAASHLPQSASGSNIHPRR

T2: GFP:TurboID:SPD-5 (C. elegans) (UniProt P91349)
T2 sequence: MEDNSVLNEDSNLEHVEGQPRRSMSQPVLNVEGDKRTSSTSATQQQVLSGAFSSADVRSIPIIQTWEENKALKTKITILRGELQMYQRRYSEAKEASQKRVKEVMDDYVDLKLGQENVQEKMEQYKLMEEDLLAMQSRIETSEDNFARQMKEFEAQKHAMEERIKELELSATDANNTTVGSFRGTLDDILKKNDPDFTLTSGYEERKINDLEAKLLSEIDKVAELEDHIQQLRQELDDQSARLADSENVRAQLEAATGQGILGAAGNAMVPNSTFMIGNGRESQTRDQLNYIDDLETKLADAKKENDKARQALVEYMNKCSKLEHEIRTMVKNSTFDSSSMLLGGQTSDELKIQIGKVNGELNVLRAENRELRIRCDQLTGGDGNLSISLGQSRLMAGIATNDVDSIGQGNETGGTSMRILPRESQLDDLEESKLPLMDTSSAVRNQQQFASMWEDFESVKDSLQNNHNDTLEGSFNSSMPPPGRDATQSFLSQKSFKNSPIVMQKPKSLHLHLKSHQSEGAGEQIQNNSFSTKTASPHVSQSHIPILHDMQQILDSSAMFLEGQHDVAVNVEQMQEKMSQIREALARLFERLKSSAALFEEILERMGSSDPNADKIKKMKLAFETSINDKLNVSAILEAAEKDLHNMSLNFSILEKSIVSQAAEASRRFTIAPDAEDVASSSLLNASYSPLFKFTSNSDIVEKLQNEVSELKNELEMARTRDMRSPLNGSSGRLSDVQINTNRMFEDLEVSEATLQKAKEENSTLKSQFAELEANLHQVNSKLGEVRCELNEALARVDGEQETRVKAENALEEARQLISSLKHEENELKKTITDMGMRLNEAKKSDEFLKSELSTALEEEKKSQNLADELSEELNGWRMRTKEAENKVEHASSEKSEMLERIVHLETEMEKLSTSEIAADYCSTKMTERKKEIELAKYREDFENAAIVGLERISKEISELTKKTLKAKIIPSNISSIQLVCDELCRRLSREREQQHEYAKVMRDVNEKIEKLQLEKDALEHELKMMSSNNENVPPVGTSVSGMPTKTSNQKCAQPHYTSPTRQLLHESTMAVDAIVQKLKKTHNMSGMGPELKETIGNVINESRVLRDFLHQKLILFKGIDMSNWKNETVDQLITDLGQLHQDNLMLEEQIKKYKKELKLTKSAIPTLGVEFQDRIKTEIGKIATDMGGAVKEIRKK

B1: CLS-3/CLASP (protein, UniProt Q03609 1-983)
chain: MTSRMQPKSGVYSVSKADFTKIFEDVPKVPITSAVDLRNKFDAVRIILSNSSEDWNKRQTQLKTVRSLVIHGEKVVDRPTMIAHLVQLLGCFELAVKDLRSQVLREAAITCSFIVSKYGIETHSIGEDILVPAMSQVAVSTKIMATSASTLTEFIVEYVQTRQVFTILSSFSTSKDKSQRRQLAALLEIVISKWSDRIKKQIMRQICELIKSAINDADSETRAAGRRAFAKLDEMHSEEADALYLELDHSKQKMLRGGDAASSWASVNSEKGSIPIRSKLSAGSKAHMNISAKFLAQRSASAIDPKATKFAGPSRLVRPTSTKTMARQDTSPAGCKYSNFISMFFKTLLLSAKIPYPNRPGSRTRTSSITSTDSRDTSPTRRNSPLPPETQKARVKYGNGSFFAKLGMPDTTDDDEFLLPIRIRSPLKTPTIEAHDKVSQVLKECCSSSVSEKKEGIKKLLPIVADTSLNPIEIKNIGNCLNRLLSDASNTMVLEIYSIFVRTHSSRLSEWLRLALAKLFARKAAETLPNTKKQIGHTLNVILECFNAHHQLVTVCELMCDPIHLMVPKARVVLLEYLTSLLDEYTEPGASINAKELKTAIRKMLTWASDPRLSILLTPHVEKAICSMFCVNVADFSALISDLDSEQKNWIHQTLQRNGLENGISSNNIATNSGATASRETSNTSFQKESTSFGLPEFGARKGGTGVNLGSLNISNNLALSRLEEQSTSRLMEKVNLNSTVTLPPDTLEKIQNVQDLLQKMRSSENADEQESAISSIYMMICDGGFGVWEQCYAKLLLNLFEILSKSRSENNKKMCLRILGKMCTAQAAKLFDSTEMAVCKVLDAAVNTNDATTALAVEDCLRTLATHLPLSNIINIAKVILNQEPIDDERASLVLKMVTRLFEELPAEELNNIVDDITPTIIKAYQSTSSTVRKTVVYCLVAMVNRVGEQRMTPHFTKLPKAMTNLIQVYVNRAISTSLPRL
B2: APR-1/APC (protein, UniProt Q21227 1-1188)
chain: MSSSSSDENETTIHRTGSNTGGSGIYSQPRAGSSKRTSNVRHDVSDVDDEEEHYARFREDTAIEVDDAITVLLSSLHFEHKRDIVPTDEDDNKLRELHEKIFALITSESDVNRKRRLKKALPASNCVREQVYYLRRKPSTPPASYYHRLNAALHTIVKESFGEEYRKVATVLGLVEALAEVLILEVHTFGINETNPGEHRNIRKLIANALTNLTYGQIHSKRRLCSYDGFIRCVVRIVIESPNITQVYAGLIRNLSWNADSGMSEALQPTVHALSIAAVHAHTHRFDVTATLSALWNLAGHSVENKRTICDTPNCLKVLASLLSPDARFTSLVDSATGILKYVSQYLANTSTHLELRSLLITRMLTLLKSASFTCVTNTLGAIANLIVKDPHMQQMIRQDMAAVQQLNVLRNSNRDDIRTAVKSVLNTLNQPCSHRYGDMSHSVGGGATGMQMLSEPQLQMQTSHHAYHGTASPRLLSLRATRASPGKYIQPQAQQQLIQTPQVDQRSSSLPRHFAVQRNGFVMAQSYNQQMDQHQQQQMIYQLQQQQQIMFQTEDQAQMEHHQQIMYLQQQQQQFHQIQQQQQMQKAQEADPVPPTDDDLDIPTSTVMGTRSNSERSLGSMNPGSVMTNWNSSLDTAANSSRALSPVSYNDIPASPTMCAQVFNLPKSTESEHHQLTSQQQNTTHYSSGSANTMTRSDGATTVPMDNIITPTYAILNPILVHEQTPNGTVPRKTSEELDSPDDVLPGPSLEEEEGDYAIIGGAAQKTDDELLTRSIQSEMPTSSSTPKMKVSPRLNGFFSPTQKTTSSPAWSHPDTSPIPKSSSHRTQPNRRQDASDADRLLMESIMSEMPKSRIISPRLAGTQQYLEPEPERRSHSKNEEADRRDAFTASHEPSDHNGIDVARGSDWSPQQQLHRMESLESQASSEDSFGLTAEEPNSSTSGAAANTMRFDDEIDASLPMDCVDDDDYDYTYDHFEDYEDEEDPDATQFDDGVDAQLTIDCSMISSGSGSSQRNETTTTSRDSKALATSTPKGSASSLPGVRQATRVSTNGKSRLPVPKTNGSLVDKNPKPIIASRRPRLPPKPTLLKDKHYPEEDSIENQTRDDTIYVNAPVVEAEQERIYMNALKQQKNIEQSPSIGNGSPIAKSAIVTPYNYQKPPFTGRNNGEMSNEKSVTPNPKQMLVTIV
B3: SPD-2 (protein, UniProt P91870 1-824)
chain: MEDDAPMNLCNEQFEEIEDSPIDDNDNESFYNADGDVELEEEEVHETPKNFKNGGRFKTNMTNPKVNDLTTIEEKNEDLRSAASSRSASRPASVMSDKSFSSQFEFQSGGENAIEEYTNQVFADENKADLLFPETSKFMNGASPPKDKHHSWEPSIHHYDKQPPPDIQTNSPVFGNLNHRKNKLIPQARAKPGANDNEIVERDNDENVPTTSDKSAFITSPMNSTNHDEKTSTPKRPTNRKIGQYQGPNFDLSSIYVGSPQHQNTSISTGQQMPTSSYSHAHSETMMTNQTINESMVRRVLNGNNKNQDLFAALEEARKRRAAQPSKPDFRINTTRTRVPIKPTSARHSGNVVSSTSNDNTTAASSKDLTTSRKAMETFRQNASMADATNSNTASMTSILSTISTARTDISRSSRNHGGGFSNTSVSTVIPANNGNVSLSHGRDGRDSVSSVRTMSRASSTSTVYAGSTFSGVSKPLRIHAKRVAFGCVAVGETLRVEVEVENISDRQCLVRASTDSTTPVYQILDNKLTMVDPKKSIKFQVSFSPSSVGRYQVIMSIEVPAQNFIHKIPMWGNGGIAKFVPTSPDLQQTINQSEYAMCTSCAKRISFKISNSAGTRDGFAMIKVFDSAMRQLPDGCVAFFPAPGFIVKKKSDKRVDIRIDSSYIDLHDENNFRTSSSLSTASTTSSFQRRILPGAKFFVHVVWGEETMRTRLRLLEVRTGQHQLIDGHDFTSFQFSDEEVLRAVPVGFPAIKPEDRDLFAASYRSFFINFFTSTTEFRAATSRKKKEICSNDDSTLLETTAFRNQTFVNDVTIVPNTRFSNRK
B4: RSA-1 (protein, UniProt O02217 1-404)
chain: MPTDEPSKRKSILPTIPTSLMLKKSNEALSDFERTFNDRVMDIFAENRRIDVEEFKKNAECFLNIIRSNKIDLNWGEGGESRYVTITRLMKILKTSPQSIKDLLPHNTVSNFVKITNYNLTIDITLLEELVRTVIHAEESYIKLLPFSENSTEISSYSLQDFVATHFIPIMIEEPENPVYYTAYAVGTIFFLLGARRRDCVYLKDLLASTLLLQLEECIHAENHCLSPPKIDVFTVAQFRTTLSEFRFLDSQRKGLLAPADLKFFRDGIFNEVFTKRIFEISITYEDGRIDFKAFVDFVTALKFRHTTASAKYHFEILDLKDDGLLDEEEIRSISSFQLQNLPDYVPEDNSVNPEVATAELRDMMRLNQNGITLEEFLANRMNSTFAGFLSNSDDYMKYERREQ
B5: PAA-1 (protein, UniProt Q09543 1-590)
chain: MSVVEEATDDALYPIAVLIDELRNEDVTLRLNSIRKLSTIALALGVERTRNELIQFLTDTIYDEDEVLLVLAEQLGNFTPLVGGPDHVHCLLLPLENLATVEETVVRDKAVESLRKIADKHSSASLEEHFVPMLRRLATGDWFTSRTSACGLFSVVYPRVSPAIKSELKSMFRTLCRDDTPMVRRAAAAKLGEFAKVFEKTAVIEGLHSSLTDLHVDEQDSVRLLTVESAIAFGTLLDKANKKKLIEPILIELFDDKSWRVRYMVAEKLIEIQNVLGEDMDTTHLVNMYTNLLKDPEGEVRCAATQRLQEFALNLPEDKRQNIICNSLLNVAKELVTDGNQLVKSELAGVIMGLAPLIGKEQTVSELLPIYMQLLNDQTPEVRLNIISSLDKVNEVIGAAQLSTSLLPAIVGLAEDGKWRVRLAIVQFMPLLASQLGQEFFDEKLLPLCLNWLTDHVFSIREASTLIMKELTQKFGGQWASTNIVPKMQKLQKDTNYLQRMTCLFCLNTLSEAMTQEQILKEIMPIVKDLVEDDVPNVRFNAAKSLKRIGKNLTPSTLTSEVKPLLEKLGKDSDFDVRYFSEEAKNSLGL

The molecules below were run against T1, GFP:TurboID:PLK-1 (C. elegans) (assay: proximity labelling; direct TurboID: GFP:TurboID fusion of the bait expressed as a transgene in mixed-stage C. elegans embryos, no supplemental biotin; insoluble (cytoskeletal) fraction resolubilised under denaturing conditions, streptavidin pull-down, LC-MS/MS; three replicates against the GFP:TurboID control; Log2 enrichment >1, p-value <0.05).
In the case of “CYK-1 (C. elegans (endogenous in embryos))”, the binding is reported as “binds”.
For “RGA-2 (C. elegans (endogenous in embryos))”, the binding was “binds”.
For B1, the binding was “binds”.
In the case of B2, the binding is reported as “binds”.

These molecules were tested against T2, GFP:TurboID:SPD-5 (C. elegans) in the same assay as above.
“LET-92 (from UniProt G5EGK8 1-318) (enzyme)” was tested, and the binding was “no binding”.
“γ-tubulin (TBG-1 in C. elegans) (from UniProt P34475 1-444)” was tested, and the binding was “no binding”.
With B3 the binding was “binds”.
B4 was tested, and the binding was “no binding”.
With B5 the binding was “no binding”.
